This note sets out measurements from publication PMC4507007.

Protein sequences, listed by entry. Tags and fused reporters are not part of them. Lines headed by an entry give the natural chain unless they say otherwise; changes in a name come on top. Chains listed by the source or under a name are the forms on record and can include a tag or linker.
3 × FLAG–DOCK9 (Q9BZ29, form named): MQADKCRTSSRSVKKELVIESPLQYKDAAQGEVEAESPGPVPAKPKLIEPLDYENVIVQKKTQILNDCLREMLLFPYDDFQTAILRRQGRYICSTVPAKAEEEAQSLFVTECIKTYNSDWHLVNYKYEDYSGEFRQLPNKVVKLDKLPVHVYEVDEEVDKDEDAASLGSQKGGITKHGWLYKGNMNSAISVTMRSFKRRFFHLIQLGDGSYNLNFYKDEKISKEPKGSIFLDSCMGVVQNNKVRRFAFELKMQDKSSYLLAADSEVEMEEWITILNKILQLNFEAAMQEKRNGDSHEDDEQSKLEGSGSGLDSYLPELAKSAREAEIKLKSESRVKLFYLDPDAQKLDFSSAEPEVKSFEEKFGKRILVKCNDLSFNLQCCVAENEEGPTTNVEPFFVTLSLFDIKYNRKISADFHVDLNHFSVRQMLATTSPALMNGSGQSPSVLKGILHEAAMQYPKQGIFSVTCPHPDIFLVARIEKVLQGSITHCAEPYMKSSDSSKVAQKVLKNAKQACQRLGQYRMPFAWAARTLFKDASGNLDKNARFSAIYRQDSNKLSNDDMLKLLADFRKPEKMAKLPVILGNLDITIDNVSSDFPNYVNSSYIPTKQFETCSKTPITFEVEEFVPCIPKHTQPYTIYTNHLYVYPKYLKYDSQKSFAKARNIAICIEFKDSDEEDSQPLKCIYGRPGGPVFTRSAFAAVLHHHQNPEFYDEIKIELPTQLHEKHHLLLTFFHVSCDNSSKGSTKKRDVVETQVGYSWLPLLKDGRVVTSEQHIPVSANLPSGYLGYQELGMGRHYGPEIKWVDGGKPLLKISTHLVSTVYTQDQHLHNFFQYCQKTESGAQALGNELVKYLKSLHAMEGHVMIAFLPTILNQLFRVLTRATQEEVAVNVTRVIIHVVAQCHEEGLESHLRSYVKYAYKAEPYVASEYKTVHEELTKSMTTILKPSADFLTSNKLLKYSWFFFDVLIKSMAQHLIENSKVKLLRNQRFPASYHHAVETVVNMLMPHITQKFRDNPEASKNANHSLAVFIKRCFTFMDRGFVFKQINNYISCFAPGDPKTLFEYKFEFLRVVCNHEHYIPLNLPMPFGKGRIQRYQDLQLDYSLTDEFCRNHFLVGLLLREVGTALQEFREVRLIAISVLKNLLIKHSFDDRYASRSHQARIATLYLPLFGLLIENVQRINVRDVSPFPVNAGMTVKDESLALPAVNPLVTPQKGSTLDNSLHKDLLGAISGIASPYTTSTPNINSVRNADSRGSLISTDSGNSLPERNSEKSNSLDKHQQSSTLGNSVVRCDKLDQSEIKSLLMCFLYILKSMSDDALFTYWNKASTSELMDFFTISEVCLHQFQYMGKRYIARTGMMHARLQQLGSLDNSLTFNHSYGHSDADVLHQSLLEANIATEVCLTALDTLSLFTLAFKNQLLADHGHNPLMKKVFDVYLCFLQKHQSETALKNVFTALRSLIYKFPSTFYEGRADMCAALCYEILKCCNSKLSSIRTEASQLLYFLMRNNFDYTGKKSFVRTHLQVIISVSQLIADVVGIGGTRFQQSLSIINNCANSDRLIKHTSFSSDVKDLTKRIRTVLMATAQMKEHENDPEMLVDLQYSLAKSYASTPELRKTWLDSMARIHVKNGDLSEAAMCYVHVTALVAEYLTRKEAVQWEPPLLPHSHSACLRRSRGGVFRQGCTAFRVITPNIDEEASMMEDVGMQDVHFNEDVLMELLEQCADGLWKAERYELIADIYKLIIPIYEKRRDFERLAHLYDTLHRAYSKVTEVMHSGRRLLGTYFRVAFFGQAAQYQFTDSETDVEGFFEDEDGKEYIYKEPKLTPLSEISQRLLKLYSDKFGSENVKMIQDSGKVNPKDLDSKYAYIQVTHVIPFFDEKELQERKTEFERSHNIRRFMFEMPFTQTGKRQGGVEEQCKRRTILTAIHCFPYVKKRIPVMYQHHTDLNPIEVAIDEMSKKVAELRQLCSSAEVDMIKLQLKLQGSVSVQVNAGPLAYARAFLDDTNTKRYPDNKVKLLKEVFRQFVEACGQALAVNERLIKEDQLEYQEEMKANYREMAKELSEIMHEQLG
UniProt Q8N1I0: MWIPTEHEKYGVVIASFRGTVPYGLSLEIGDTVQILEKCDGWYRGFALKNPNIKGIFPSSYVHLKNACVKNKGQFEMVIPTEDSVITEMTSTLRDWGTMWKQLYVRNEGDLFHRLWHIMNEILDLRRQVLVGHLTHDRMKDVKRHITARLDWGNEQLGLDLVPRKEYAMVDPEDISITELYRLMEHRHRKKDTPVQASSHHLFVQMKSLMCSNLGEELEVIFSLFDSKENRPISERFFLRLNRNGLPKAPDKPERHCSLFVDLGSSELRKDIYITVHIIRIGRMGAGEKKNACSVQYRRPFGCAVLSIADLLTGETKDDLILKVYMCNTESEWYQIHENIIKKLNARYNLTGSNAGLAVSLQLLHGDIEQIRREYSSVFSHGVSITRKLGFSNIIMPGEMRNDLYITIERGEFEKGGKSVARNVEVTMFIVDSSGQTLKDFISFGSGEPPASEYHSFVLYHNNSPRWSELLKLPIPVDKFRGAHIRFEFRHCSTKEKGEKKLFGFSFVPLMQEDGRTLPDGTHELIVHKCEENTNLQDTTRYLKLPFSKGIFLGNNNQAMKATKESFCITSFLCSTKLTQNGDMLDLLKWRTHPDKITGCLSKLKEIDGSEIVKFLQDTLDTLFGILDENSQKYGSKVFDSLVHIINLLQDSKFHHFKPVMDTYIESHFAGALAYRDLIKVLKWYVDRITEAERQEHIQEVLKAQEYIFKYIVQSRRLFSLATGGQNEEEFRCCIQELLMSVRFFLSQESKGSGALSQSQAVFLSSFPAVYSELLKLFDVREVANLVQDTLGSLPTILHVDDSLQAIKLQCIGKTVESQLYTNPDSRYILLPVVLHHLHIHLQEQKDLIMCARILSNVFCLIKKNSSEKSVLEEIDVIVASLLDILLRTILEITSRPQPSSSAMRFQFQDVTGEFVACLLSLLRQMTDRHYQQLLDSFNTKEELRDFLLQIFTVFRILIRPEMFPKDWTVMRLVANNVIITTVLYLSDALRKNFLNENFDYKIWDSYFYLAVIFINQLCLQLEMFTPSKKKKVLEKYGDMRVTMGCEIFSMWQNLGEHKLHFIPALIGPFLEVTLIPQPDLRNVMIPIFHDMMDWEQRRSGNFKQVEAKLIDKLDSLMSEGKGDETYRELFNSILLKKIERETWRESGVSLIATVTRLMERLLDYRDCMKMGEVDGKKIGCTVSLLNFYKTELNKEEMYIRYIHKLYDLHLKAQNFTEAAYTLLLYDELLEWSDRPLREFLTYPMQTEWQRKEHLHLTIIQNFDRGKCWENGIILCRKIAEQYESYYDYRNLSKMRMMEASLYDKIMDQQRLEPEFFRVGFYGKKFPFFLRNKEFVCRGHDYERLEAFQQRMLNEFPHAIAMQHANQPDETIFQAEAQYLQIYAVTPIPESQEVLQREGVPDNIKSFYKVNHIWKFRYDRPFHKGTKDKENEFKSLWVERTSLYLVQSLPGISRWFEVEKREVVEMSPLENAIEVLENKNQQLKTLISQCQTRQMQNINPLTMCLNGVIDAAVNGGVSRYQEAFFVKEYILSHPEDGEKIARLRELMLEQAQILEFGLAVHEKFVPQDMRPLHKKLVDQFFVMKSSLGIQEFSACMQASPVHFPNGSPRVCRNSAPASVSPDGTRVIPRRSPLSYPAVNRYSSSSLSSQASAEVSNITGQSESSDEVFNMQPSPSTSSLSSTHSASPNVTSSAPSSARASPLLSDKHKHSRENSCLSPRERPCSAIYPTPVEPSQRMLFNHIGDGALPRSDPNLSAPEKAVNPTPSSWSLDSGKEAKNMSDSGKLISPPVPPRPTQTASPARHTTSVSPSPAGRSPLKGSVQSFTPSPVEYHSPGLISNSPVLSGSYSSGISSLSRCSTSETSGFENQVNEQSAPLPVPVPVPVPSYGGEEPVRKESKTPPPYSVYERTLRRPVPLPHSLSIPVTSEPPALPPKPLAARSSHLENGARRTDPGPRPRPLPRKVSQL

The target in the assay is 3 × FLAG–DOCK9 (UniProt Q9BZ29). Nature of the assay: affinity purification with mass spectrometry; 3 × FLAG–DOCK9 overexpressed in HEK293T, IP with M2-agarose, elution with phosphoric acid, trypsin digestion, LC-MS/MS (Orbitrap Elite, MASCOT); 3 × FLAG empty vector as control.

These are yes or no findings as the source states them, for the method shown. In cells and extracts the contact can be indirect. Here binding means that the protein was enriched with, or labelled near, the bait; the list need not be complete.

As for “DOCK4 found by mass spectrometry in 293T cells (from UniProt Q8N1I0 1-1966)”, the binding entry is “binds”.

B1: zyxin (protein, UniProt Q15942 1-572)
chain: MAAPRPSPAISVSVSAPAFYAPQKKFGPVVAPKPKVNPFRPGDSEPPPAPGAQRAQMGRVGEIPPPPPEDFPLPPPPLAGDGDDAEGALGGAFPPPPPPIEESFPPAPLEEEIFPSPPPPPEEEGGPEAPIPPPPQPREKVSSIDLEIDSLSSLLDDMTKNDPFKARVSSGYVPPPVATPFSSKSSTKPAAGGTAPLPPWKSPSSSQPLPQVPAPAQSQTQFHVQPQPQPKPQVQLHVQSQTQPVSLANTQPRGPPASSPAPAPKFSPVTPKFTPVASKFSPGAPGGSGSQPNQKLGHPEALSAGTGSPQPPSFTYAQQREKPRVQEKQHPVPPPAQNQNQVRSPGAPGPLTLKEVEELEQLTQQLMQDMEHPQRQNVAVNELCGRCHQPLARAQPAVRALGQLFHIACFTCHQCAQQLQGQQFYSLEGAPYCEGCYTDTLEKCNTCGEPITDRMLRATGKAYHPHCFTCVVCARPLEGTSFIVDQANRPHCVPDYHKQYAPRCSVCSEPIMPEPGRDETVRVVALDKNFHMKCYKCEDCGKPLSIEADDNGCFPLDGHVLCRKCHTARAQT
As to B1, the binding result was “binds”.
